Test results reported in the supplement of paper PMC6411743.
± gives the standard deviation of the averaged measurements. The entries are a selection whose mix differs from that of the whole data set.

Amino acid sequences for entries named in this document (tags omitted). A change or cut given only in a name is not applied to a line headed by its entry.
UniProt Q9GZN7, whole entry: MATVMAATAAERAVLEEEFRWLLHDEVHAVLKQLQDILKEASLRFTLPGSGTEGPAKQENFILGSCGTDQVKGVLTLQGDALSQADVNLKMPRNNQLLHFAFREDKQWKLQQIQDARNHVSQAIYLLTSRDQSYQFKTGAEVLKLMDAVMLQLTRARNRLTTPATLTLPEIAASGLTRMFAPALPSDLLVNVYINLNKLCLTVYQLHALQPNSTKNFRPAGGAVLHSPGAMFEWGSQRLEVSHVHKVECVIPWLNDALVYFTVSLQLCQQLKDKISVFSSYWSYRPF
UniProt Q6WCQ1: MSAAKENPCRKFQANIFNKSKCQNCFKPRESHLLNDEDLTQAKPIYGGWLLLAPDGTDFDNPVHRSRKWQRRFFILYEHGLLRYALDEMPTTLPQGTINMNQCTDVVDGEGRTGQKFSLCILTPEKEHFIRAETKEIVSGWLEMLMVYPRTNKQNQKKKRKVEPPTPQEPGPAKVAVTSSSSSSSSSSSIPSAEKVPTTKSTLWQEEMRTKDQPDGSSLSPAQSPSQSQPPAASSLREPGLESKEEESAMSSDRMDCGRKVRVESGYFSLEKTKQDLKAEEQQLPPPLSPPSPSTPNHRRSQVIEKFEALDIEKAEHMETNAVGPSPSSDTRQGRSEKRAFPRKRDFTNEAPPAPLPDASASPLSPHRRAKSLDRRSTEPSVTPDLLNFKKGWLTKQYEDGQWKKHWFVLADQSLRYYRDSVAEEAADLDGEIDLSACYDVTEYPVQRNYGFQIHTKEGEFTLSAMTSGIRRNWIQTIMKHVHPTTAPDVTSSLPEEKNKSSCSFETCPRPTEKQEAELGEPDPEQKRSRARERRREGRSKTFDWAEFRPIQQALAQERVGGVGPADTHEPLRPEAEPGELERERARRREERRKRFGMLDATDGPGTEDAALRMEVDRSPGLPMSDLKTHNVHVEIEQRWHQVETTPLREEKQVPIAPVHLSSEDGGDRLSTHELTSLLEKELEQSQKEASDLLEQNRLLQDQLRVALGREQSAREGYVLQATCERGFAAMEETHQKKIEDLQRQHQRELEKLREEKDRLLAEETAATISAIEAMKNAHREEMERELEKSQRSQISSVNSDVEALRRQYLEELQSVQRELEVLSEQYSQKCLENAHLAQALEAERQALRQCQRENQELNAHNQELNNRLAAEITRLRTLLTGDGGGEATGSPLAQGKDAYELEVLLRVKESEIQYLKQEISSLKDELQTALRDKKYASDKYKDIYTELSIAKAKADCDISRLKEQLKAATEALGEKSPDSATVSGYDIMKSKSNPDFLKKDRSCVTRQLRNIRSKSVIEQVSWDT
UniProt Q9UPW5: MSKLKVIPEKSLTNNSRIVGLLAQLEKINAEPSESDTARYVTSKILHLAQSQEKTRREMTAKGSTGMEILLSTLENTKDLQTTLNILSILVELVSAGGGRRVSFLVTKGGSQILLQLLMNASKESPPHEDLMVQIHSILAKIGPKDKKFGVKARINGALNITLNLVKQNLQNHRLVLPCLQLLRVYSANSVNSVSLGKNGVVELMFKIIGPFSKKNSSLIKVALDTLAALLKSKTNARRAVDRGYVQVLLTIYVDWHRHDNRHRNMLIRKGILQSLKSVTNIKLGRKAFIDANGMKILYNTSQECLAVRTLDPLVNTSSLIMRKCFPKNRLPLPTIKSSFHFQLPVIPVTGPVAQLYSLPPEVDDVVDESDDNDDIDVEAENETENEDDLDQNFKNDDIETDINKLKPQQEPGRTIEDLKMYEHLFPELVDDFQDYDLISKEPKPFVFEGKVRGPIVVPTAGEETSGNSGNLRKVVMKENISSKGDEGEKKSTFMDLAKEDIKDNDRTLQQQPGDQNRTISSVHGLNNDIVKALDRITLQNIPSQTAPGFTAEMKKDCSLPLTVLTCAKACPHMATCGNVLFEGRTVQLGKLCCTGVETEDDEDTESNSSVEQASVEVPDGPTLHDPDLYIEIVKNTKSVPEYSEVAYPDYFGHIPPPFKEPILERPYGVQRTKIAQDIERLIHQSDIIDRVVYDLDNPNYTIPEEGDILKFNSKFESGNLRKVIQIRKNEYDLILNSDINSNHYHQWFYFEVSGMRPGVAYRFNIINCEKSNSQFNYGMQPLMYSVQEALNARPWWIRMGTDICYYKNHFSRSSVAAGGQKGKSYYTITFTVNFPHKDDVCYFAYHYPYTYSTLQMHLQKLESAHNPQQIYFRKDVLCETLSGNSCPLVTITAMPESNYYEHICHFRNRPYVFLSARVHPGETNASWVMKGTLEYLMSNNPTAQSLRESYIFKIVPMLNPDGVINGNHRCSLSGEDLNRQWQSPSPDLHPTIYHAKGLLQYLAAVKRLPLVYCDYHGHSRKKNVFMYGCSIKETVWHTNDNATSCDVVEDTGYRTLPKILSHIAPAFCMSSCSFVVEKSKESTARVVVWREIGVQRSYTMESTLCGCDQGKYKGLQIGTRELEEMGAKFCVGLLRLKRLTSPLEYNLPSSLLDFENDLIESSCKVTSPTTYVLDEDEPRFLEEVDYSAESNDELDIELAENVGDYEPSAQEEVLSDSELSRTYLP
UniProt Q9Y2K7: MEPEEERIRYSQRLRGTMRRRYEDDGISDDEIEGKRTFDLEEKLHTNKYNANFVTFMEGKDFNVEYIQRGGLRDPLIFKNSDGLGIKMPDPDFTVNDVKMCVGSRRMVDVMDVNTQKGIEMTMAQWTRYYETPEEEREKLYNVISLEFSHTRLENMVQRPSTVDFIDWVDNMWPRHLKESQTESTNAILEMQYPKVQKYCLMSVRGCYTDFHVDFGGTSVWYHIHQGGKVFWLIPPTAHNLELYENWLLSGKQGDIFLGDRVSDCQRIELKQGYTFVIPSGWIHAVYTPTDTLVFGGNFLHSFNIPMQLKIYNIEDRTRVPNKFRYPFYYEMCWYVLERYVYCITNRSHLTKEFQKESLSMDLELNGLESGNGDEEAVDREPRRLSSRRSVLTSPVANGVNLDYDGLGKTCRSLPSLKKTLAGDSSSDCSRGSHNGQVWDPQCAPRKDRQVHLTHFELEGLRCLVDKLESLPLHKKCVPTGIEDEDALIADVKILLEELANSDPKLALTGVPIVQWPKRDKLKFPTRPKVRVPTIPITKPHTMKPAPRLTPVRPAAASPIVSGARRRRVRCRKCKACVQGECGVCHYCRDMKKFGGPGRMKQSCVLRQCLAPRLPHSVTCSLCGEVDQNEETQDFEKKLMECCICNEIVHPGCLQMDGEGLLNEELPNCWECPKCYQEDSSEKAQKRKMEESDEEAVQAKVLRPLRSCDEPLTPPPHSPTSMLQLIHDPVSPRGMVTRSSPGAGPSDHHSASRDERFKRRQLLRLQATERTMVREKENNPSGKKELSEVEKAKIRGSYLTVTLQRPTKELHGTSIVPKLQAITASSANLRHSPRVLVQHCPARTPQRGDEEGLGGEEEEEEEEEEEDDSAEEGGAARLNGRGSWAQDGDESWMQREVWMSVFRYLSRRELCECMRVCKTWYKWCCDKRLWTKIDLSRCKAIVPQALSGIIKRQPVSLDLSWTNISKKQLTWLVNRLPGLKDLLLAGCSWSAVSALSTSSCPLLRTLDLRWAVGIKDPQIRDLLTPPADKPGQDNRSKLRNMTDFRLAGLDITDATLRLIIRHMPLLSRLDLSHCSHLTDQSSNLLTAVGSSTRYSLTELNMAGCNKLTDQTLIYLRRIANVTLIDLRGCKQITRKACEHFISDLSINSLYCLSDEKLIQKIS
UniProt Q9Y421: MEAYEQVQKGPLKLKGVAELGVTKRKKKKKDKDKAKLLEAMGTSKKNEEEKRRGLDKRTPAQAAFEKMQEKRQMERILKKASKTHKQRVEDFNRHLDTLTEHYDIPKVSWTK
UniProt Q12982: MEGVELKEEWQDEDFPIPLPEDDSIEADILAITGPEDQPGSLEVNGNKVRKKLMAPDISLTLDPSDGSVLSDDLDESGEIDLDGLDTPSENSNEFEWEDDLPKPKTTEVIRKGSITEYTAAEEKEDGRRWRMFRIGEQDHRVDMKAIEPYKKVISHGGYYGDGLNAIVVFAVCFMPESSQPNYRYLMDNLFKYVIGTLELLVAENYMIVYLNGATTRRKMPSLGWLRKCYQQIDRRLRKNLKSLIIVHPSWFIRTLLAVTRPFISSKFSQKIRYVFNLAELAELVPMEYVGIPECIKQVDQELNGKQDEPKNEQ
UniProt Q6PCT2: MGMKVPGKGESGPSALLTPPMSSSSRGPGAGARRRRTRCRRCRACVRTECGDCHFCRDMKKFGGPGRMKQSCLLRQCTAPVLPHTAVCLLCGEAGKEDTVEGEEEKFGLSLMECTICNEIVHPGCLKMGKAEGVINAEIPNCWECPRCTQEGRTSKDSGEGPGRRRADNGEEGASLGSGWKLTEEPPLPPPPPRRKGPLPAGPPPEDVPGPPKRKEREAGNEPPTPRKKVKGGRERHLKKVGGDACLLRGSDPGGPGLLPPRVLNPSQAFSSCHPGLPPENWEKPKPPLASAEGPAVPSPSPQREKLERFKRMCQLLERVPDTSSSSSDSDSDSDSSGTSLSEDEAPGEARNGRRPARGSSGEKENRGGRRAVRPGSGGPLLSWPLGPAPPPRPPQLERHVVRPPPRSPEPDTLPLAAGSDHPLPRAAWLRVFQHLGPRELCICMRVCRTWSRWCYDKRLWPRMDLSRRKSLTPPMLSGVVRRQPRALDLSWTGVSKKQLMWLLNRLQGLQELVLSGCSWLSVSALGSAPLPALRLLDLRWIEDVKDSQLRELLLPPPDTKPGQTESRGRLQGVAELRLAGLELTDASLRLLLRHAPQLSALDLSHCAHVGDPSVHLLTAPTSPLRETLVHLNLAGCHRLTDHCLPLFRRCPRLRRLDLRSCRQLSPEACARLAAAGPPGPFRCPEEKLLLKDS
UniProt Q15653: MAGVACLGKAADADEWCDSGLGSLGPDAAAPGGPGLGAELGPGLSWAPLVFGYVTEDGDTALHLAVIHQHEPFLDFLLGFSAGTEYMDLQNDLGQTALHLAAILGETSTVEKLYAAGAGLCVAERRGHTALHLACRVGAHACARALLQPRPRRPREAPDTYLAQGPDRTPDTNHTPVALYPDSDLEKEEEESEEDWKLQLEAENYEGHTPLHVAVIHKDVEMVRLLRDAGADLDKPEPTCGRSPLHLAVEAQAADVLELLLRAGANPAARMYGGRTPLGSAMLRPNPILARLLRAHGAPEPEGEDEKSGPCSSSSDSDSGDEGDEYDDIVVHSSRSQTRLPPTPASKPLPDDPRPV
UniProt Q9GZU7: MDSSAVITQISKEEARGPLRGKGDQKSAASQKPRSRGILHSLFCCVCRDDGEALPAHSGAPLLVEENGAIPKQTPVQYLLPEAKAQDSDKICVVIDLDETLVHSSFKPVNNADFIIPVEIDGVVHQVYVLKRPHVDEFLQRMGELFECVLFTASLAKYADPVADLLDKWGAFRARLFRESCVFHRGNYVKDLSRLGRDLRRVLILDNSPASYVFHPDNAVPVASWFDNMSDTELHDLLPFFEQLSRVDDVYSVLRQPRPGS
UniProt O43414: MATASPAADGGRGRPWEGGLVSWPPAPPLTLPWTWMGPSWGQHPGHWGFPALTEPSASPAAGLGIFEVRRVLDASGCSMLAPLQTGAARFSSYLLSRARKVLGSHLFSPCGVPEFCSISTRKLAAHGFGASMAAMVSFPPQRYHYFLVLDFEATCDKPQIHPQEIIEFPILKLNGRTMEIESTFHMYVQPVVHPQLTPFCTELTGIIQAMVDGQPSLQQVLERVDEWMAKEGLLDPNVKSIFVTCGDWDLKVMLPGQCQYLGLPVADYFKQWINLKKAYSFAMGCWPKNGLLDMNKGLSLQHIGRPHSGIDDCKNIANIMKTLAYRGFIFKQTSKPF
UniProt Q9HA82: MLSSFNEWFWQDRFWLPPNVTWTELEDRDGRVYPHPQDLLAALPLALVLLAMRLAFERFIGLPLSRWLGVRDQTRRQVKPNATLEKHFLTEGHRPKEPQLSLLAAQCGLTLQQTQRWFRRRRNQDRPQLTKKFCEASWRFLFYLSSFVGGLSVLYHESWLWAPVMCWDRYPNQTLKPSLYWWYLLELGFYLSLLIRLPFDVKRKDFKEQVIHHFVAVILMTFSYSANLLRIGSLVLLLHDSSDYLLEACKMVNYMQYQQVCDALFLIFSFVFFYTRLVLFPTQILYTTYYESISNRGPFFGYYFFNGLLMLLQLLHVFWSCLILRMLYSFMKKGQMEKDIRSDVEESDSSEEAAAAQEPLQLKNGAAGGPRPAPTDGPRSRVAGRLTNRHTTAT
UniProt Q9NTK5, whole entry, looked up: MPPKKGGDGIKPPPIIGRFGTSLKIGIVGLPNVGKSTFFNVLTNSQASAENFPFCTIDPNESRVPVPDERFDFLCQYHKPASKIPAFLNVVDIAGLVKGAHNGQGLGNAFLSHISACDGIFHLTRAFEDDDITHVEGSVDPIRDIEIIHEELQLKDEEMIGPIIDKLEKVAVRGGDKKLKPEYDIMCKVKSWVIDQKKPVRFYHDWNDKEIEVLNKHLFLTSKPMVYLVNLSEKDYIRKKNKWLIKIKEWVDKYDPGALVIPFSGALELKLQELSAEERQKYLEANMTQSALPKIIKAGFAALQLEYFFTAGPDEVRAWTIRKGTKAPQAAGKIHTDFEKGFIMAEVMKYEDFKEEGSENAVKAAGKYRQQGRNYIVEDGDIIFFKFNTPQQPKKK

Compound: Nc1ncnc2c1ncn2[C@@H]1O[C@H](COP(=O)(O)OP(=O)(O)OP(=O)(O)O)[C@@H](O)[C@H]1O [adenosine triphosphate]
Assay: NP40-soluble protein abundance relative to vehicle (solubility fold change) (ratio); higher = more soluble protein in presence of ATP
Summary of the method: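 Jurkat crude lysate (Dounce-homogenised) was treated with eight concentrations from 0.1 to 10 mM for 10 min at room temperature, then 3 min at 37 °C. It was solubilised with 0.8% NP40 and benzonase (60 min, 4 °C) and ultracentrifuged, and the supernatant was TMT-labelled for LC-MS/MS. Intensities were vsn-normalised, and the value is the fold change against the NP40-processed vehicle per replicate, from three independent experiments.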

| Target | NP40-soluble protein abundance (concentration: 1mM) | NP40-soluble protein abundance (concentration: 2mM) | NP40-soluble protein abundance (concentration: 4mM) | NP40-soluble protein abundance (concentration: 6mM) | NP40-soluble protein abundance (concentration: 8mM) | NP40-soluble protein abundance (concentration: 10mM) |
| --- | --- | --- | --- | --- | --- | --- |
| G5E9Q6 and related entries (UniProt P35080) | 0.964 ± 0.029 | 1 ± 0.026 | 0.982 ± 0.034 | 0.948 ± 0.023 | 0.934 ± 0.021 | 0.966 ± 0.029 |
| H0YK61 and related entries (UniProt Q5J8M3) | 1.03 ± 0.12 | 0.959 ± 0.07 | 0.955 ± 0.073 | 0.981 ± 0.054 | 0.966 ± 0.12 | 1 ± 0.081 |
| K7ERP1 and related entries (UniProt Q9GZN7) | 1.13 ± 0.061 | 1.05 ± 0.064 | 1.03 ± 0.054 | 1.01 ± 0.062 | 1.05 ± 0.056 | 1.05 ± 0.035 |
| I3L3S0 and related entries (UniProt Q9Y5R8) | 1.02 ± 0.22 | 0.959 ± 0.13 | 0.979 ± 0.2 | 0.85 ± 0.19 | 0.933 ± 0.11 | 0.987 ± 0.13 |
| H0Y2S9 and related entries (UniProt Q6WCQ1) | 1.19 ± 0.049 | 1.24 ± 0.017 | 1.366 ± 0.0052 | 1.38 ± 0.08 | 1.35 ± 0.059 | 1.41 ± 0.058 |
| G5EA30 and related entries (UniProt Q92879) | 0.945 ± 0.015 | 0.996 ± 0.058 | 0.9471 ± 0.0078 | 0.969 ± 0.014 | 0.923 ± 0.022 | 0.96 ± 0.021 |
| K7ELE3 and related entries (UniProt Q08117) | 0.928 ± 0.071 | 0.916 ± 0.11 | 1.01 ± 0.064 | 0.972 ± 0.07 | 0.883 ± 0.042 | 0.89 ± 0.089 |
| H3BU53 and related entries (UniProt Q8IWI9) | 1.03 ± 0.027 | 1.03 ± 0.049 | 1.04 ± 0.061 | 1.04 ± 0.1 | 0.994 ± 0.057 | 1.06 ± 0.073 |
| J3KNS1 and related entries (UniProt Q9UPW5) | 1.03 ± 0.034 | 1.04 ± 0.018 | 1.09 ± 0.011 | 1.09 ± 0.047 | 1.073 ± 0.0088 | 1.11 ± 0.048 |
| H9KVB4 and related entries (UniProt O15417) | 0.983 ± 0.18 | 1.04 ± 0.015 | 0.964 ± 0.013 | 0.884 ± 0.17 | 0.9296 ± 0.0052 | 1.02 ± 0.015 |
| K7EQ37 and related entries (UniProt Q70J99) | 1.04 ± 0.098 | 1.02 ± 0.068 | 1.01 ± 0.057 | 0.935 ± 0.094 | 1.02 ± 0.056 | 0.987 ± 0.052 |
| J3KN10 and related entries (UniProt P42356) | 1.11 ± 0.14 | 1.09 ± 0.077 | 1.05 ± 0.025 | 1.05 ± 0.064 | 1.08 ± 0.029 | 1.12 ± 0.12 |
| I3VM54 and related entries (UniProt Q9Y2K7) | 1.23 ± 0.031 | 1.298 ± 0.011 | 1.42 ± 0.029 | 1.51 ± 0.049 | 1.536 ± 0.009 | 1.6 ± 0.046 |
| I3L1P8 and related entries (UniProt Q02978) | 0.888 ± 0.16 | 0.863 ± 0.076 | 0.874 ± 0.015 | 0.79 ± 0.088 | 0.891 ± 0.048 | 0.957 ± 0.038 |
| J3KQN4 and related entries (UniProt P83881) | 0.8462 ± 0.0032 | 0.845 ± 0.09 | 0.798 ± 0.095 | 0.74 ± 0.084 | 0.7211 ± 0.0045 | 0.847 ± 0.074 |
| K7EIY1 and related entries (UniProt Q9Y421) | 0.852 ± 0.029 | 0.868 ± 0.046 | 0.88 ± 0.083 | 0.991 ± 0.088 | 1.01 ± 0.043 | 0.953 ± 0.13 |
| M0QYZ2 and related entries (UniProt P53680) | 1.07 ± 0.14 | 1.1 ± 0.056 | 1.05 ± 0.046 | 1.02 ± 0.14 | 1.13 ± 0.056 | 1.14 ± 0.022 |
| I3L2B0 and related entries (UniProt O75153) | 0.995 ± 0.055 | 0.999 ± 0.037 | 0.987 ± 0.047 | 0.972 ± 0.054 | 0.981 ± 0.03 | 0.983 ± 0.049 |
| K7EQJ5 and related entries (UniProt P62841) | 0.893 ± 0.087 | 0.848 ± 0.13 | 0.801 ± 0.16 | 0.803 ± 0.22 | 0.745 ± 0.13 | 0.801 ± 0.17 |
| H7C096 and related entries (UniProt Q12982) | 0.828 ± 0.15 | 0.818 ± 0.12 | 0.782 ± 0.13 | 0.759 ± 0.16 | 0.745 ± 0.15 | 0.703 ± 0.2 |
| H3BPZ0 and related entries (UniProt Q6PCT2) | 1.026 ± 0.0099 | 1.04 ± 0.019 | 1.06 ± 0.075 | 1.08 ± 0.032 | 1.01 ± 0.035 | 1.07 ± 0.035 |
| G5E9C2 and related entries (UniProt Q15653) | 0.983 ± 0.061 | 0.982 ± 0.032 | 0.969 ± 0.011 | 0.985 ± 0.025 | 0.9606 ± 0.003 | 0.967 ± 0.016 |
| H0YEH1 and related entries (UniProt Q13492) | 0.9472 ± 0.0032 | 0.92 ± 0.011 | 0.925 ± 0.028 | 0.919 ± 0.014 | 0.901 ± 0.048 | 0.928 ± 0.062 |
| H7C1Z7 and related entries (UniProt Q9GZU7) | 0.921 ± 0.067 | 1.04 ± 0.09 | 1.19 ± 0.23 | 1.16 ± 0.15 | 1.05 ± 0.13 | 1.06 ± 0.11 |
| H0Y4B0 and related entries (UniProt O43414) | 1.09 ± 0.14 | 1.01 ± 0.07 | 1.03 ± 0.038 | 0.907 ± 0.11 | 0.975 ± 0.084 | 1.01 ± 0.037 |
| J3QQJ0 and related entries (UniProt Q9UHR5) | 0.905 ± 0.011 | 0.88 ± 0.027 | 0.808 ± 0.024 | 0.832 ± 0.019 | 0.759 ± 0.043 | 0.768 ± 0.045 |
| J3KPP0 and related entries (UniProt Q9Y6G3) | 1 ± 0.068 | 0.918 ± 0.11 | 0.964 ± 0.12 | 0.947 ± 0.15 | 0.862 ± 0.1 | 0.841 ± 0.18 |
| H0YCX2 and related entries (UniProt Q96PV7) | 1.07 ± 0.042 | 1.19 ± 0.2 | 1.29 ± 0.097 | 1.35 ± 0.11 | 1.3 ± 0.1 | 1.39 ± 0.12 |
| H0YKC9 and related entries (UniProt Q9HA82) | 0.992 ± 0.021 | 0.97 ± 0.18 | 0.976 ± 0.12 | 0.959 ± 0.21 | 0.955 ± 0.2 | 0.993 ± 0.13 |
| J3KQ32 and related entries (UniProt Q9NTK5) | 0.989 ± 0.094 | 0.967 ± 0.08 | 0.94 ± 0.078 | 0.945 ± 0.1 | 0.965 ± 0.077 | 0.953 ± 0.059 |

A second format for some results above.
Target,NP40-soluble protein abundance (concentration: 1mM),NP40-soluble protein abundance (concentration: 2mM),NP40-soluble protein abundance (concentration: 4mM),NP40-soluble protein abundance (concentration: 6mM),NP40-soluble protein abundance (concentration: 8mM),NP40-soluble protein abundance (concentration: 10mM)
K7ELE3 and related entries (UniProt Q08117),0.928 ± 0.071,0.916 ± 0.11,1.01 ± 0.064,0.972 ± 0.07,0.883 ± 0.042,0.89 ± 0.089
H3BU53 and related entries (UniProt Q8IWI9),1.03 ± 0.027,1.03 ± 0.049,1.04 ± 0.061,1.04 ± 0.1,0.994 ± 0.057,1.06 ± 0.073
J3KNS1 and related entries (UniProt Q9UPW5),1.03 ± 0.034,1.04 ± 0.018,1.09 ± 0.011,1.09 ± 0.047,1.073 ± 0.0088,1.11 ± 0.048
H9KVB4 and related entries (UniProt O15417),0.983 ± 0.18,1.04 ± 0.015,0.964 ± 0.013,0.884 ± 0.17,0.9296 ± 0.0052,1.02 ± 0.015
K7EQ37 and related entries (UniProt Q70J99),1.04 ± 0.098,1.02 ± 0.068,1.01 ± 0.057,0.935 ± 0.094,1.02 ± 0.056,0.987 ± 0.052
J3KN10 and related entries (UniProt P42356),1.11 ± 0.14,1.09 ± 0.077,1.05 ± 0.025,1.05 ± 0.064,1.08 ± 0.029,1.12 ± 0.12
I3VM54 and related entries (UniProt Q9Y2K7),1.23 ± 0.031,1.298 ± 0.011,1.42 ± 0.029,1.51 ± 0.049,1.536 ± 0.009,1.6 ± 0.046
I3L1P8 and related entries (UniProt Q02978),0.888 ± 0.16,0.863 ± 0.076,0.874 ± 0.015,0.79 ± 0.088,0.891 ± 0.048,0.957 ± 0.038
